# Tested on: Ribosomal RNA A-site
# Test: Binding affinity of aminoglycoside to 16S ribosomal RNA A-site in Escherichia coli
# Format: nucleic-acid assay
compound,measurement,value
CNC1C(O)C(OC2C(N)CC(N)C(OC3OC(CN)CCC3N)C2O)OCC1(C)O (stereo unspecified) [GENTAMICIN C1A],Kd,1.7 µM
